In PMC3499536:
Results are given in words; binding and its absence hold for the method and conditions named. For some of these results: In cells and extracts the contact can be indirect. Some results given as binding are weak or reduced against the parent protein; the word gives no strength. For some of these results: Sequences can lack the tags named with a protein.

T1: Arabidopsis G-protein β subunit AGB1, two-hybrid bait (pGBKT7-AGB1) (Arabidopsis thaliana) (UniProt P49177)
T1 sequence: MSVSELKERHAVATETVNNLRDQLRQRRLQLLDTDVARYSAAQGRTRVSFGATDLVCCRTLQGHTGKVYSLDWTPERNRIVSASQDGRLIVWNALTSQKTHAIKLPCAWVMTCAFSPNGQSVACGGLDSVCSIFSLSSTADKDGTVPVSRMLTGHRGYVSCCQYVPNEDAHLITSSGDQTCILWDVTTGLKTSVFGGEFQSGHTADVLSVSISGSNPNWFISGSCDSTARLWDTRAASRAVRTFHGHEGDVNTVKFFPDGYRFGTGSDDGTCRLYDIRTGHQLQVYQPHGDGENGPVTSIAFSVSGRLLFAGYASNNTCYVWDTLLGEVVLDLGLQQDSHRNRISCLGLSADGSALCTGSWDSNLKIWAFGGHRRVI

T2: AGB1 fused to the N-terminal fragment of mVenus for BiFC (pBS-35S:AGB1-VN159) (Arabidopsis thaliana) (UniProt P49177)
T2 sequence: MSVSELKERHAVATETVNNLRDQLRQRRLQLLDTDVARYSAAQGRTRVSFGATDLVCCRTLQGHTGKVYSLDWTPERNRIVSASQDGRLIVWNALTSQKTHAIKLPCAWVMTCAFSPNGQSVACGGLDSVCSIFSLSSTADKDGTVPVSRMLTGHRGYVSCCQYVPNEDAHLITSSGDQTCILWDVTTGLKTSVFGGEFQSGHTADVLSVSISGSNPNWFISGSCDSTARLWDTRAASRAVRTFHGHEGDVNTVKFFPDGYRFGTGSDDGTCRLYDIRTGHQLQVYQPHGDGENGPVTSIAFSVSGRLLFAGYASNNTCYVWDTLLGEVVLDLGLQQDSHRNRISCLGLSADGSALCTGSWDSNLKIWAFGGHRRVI

B1: Plant U-box 20 (PUB20), full-length ORF, two-hybrid prey (pGADT7-Rec-PUB20) (protein, UniProt Q9C8D1 1-431)
chain: MGLSLRVRRRGGSVSKKEIIPVTSCSEEVEITIPSQFQCPISYELMKDPVIIASGITYDRENIEKWFESGYQTCPVTNTVLTSLEQIPNHTIRRMIQGWCGSSLGGGIERIPTPRVPVTSHQVSEICERLSAATRRGDYAACMEMVTKMTRLGKESERNRKCVKENGAGLVLCVCFDAFSENANASLLLEETVSVLTWMLPIGLEGQSKLTTTSSFNRLVELLRNGDQNAAFLIKELLELNVTHVHALTKINGVQEAFMKSINRDSTCVNSLISIHHMILTNQETVSRFLELDLVNITVEMLVDSENSVCEKALTVLNVICETKEGREKVRRNKLVIPILVKKILKISEKKDLVSVMWKVCKSGDGSEVEEALRLGAFKKLVVMLQVGCGEGTKEKVTELLKMMNKVMKMNGFVDRSYSSSIEFKHVKKPF
B2: PUB20 fused to the C-terminal fragment of mVenus for BiFC (pBS-35S:PUB20-VC80) (protein, UniProt Q9C8D1 1-431)
chain: MGLSLRVRRRGGSVSKKEIIPVTSCSEEVEITIPSQFQCPISYELMKDPVIIASGITYDRENIEKWFESGYQTCPVTNTVLTSLEQIPNHTIRRMIQGWCGSSLGGGIERIPTPRVPVTSHQVSEICERLSAATRRGDYAACMEMVTKMTRLGKESERNRKCVKENGAGLVLCVCFDAFSENANASLLLEETVSVLTWMLPIGLEGQSKLTTTSSFNRLVELLRNGDQNAAFLIKELLELNVTHVHALTKINGVQEAFMKSINRDSTCVNSLISIHHMILTNQETVSRFLELDLVNITVEMLVDSENSVCEKALTVLNVICETKEGREKVRRNKLVIPILVKKILKISEKKDLVSVMWKVCKSGDGSEVEEALRLGAFKKLVVMLQVGCGEGTKEKVTELLKMMNKVMKMNGFVDRSYSSSIEFKHVKKPF
B3: AGG1 fused to the C-terminal fragment of mVenus for BiFC (pBS-35S:AGG1-VC80) (protein, UniProt Q9FDX9 1-98)
chain: MREETVVYEQEESVSHGGGKHRILAELARVEQEVAFLEKELKEVENTDIVSTVCEELLSVIEKGPDPLLPLTNGPLNLGWDRWFEGPNGGEGCRCLIL

Legend:
[1] = biological target: T1, Arabidopsis G-protein β subunit AGB1, two-hybrid bait (pGBKT7-AGB1) (Arabidopsis thaliana); test: two-hybrid; pGBK-AGB1 (bait) and pGADT7-Rec constructs (prey) co-introduced into S. cerevisiae AH109; HIS3 reporter on TDO (SD/-Trp/-Leu/-His + 10 mM 3-AT)
[2] = biological target: T1, Arabidopsis G-protein β subunit AGB1, two-hybrid bait (pGBKT7-AGB1) (Arabidopsis thaliana); test: two-hybrid; Matchmaker library screen by yeast mating; full-length AGB1 in pGBKT7 as bait, Arabidopsis mature leaf cDNA library as prey; high-stringency selection media (SD/QDO)
[3] = biological target: T2, AGB1 fused to the N-terminal fragment of mVenus for BiFC (pBS-35S:AGB1-VN159) (Arabidopsis thaliana); test: split reporter; BiFC with mVenus fragments; AGB1 with VN, PUB20 or AGG1 with VC80; transient expression from the 35S promoter

| Binder | binding [1] | binding [2] | binding [3] |
| --- | --- | --- | --- |
| B1 | binds | binds |  |
| B2 |  |  | binds |
| B3 |  |  | binds |
